Experimental data taken from paper PMC5339217.
These are yes or no findings as the source states them, for the method shown. In cells and extracts the contact can be indirect. Some binding calls cover weakened binding; strength is not graded here.

The chains behind the UniProt entries cited, without tags or fusion partners. Residues count along the entry.
UniProt P11021, residues 19-654: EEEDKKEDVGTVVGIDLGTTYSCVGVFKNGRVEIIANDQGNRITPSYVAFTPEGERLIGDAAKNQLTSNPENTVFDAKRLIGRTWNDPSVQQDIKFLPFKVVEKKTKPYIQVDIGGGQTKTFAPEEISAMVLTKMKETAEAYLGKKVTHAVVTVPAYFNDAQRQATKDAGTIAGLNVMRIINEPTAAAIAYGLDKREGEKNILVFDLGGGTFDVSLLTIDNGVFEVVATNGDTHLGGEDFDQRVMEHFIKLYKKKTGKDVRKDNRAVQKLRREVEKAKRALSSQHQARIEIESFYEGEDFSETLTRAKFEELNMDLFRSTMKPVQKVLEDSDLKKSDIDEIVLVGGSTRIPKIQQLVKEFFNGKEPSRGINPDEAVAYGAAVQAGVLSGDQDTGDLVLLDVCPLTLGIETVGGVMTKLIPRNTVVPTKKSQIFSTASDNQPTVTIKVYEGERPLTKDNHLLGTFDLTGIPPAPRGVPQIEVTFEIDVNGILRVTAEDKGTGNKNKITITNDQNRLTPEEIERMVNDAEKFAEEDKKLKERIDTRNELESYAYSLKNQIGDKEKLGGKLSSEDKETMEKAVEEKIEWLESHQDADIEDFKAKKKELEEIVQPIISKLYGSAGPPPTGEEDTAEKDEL

Biological target: BiP (UniProt P11021)
Experiment: co-IP; coprecipitation of INPP5K (wild-type and disease-related mutants) and BiP; bait, cells and conditions are not told in the text shown (Figure S10)

binding: binds
B1: inositol polyphosphate-5-phosphatase K (INPP5K), wild-type (enzyme, UniProt Q9BT40-1 1-448)
chain: MSSRKLSGPKGRRLSIHVVTWNVASAAPPLDLSDLLQLNNRNLNLDIYVIGLQELNSGIISLLSDAAFNDSWSSFLMDVLSPLSFIKVSHVRMQGILLLVFAKYQHLPYIQILSTKSTPTGLFGYWGNKGGVNICLKLYGYYVSIINCHLPPHISNNYQRLEHFDRILEMQNCEGRDIPNILDHDLIIWFGDMNFRIEDFGLHFVRESIKNRCYGGLWEKDQLSIAKKHDPLLREFQEGRLLFPPTYKFDRNSNDYDTSEKKRKPAWTDRILWRLKRQPCAGPDTPIPPASHFSLSLRGYSSHMTYGISDHKPVSGTFDLELKPLVSAPLIVLMPEDLWTVENDMMVSYSSTSDFPSSPWDWIGLYKVGLRDVNDYVSYAWVGDSKVSCSDNLNQVYIDISNIPTTEDEFLLCYYSNSLRSVVGISRPFQIPPGSLREDPLGEAQPQI
